Data taken from PMC4891818.
Results are given in words; binding and its absence hold for the method and conditions named. In cells and extracts the contact can be indirect. A yes stands for co-enrichment or nearness to the bait. Other partners may have been found. For part of these data: Sequences can lack the tags named with a protein.

Sequences of proteins named here, by UniProt entry; tags and fusion partners are left off. A change or cut given only in a name is not applied to a line headed by its entry. Residues count along the entry.
UniProt P35221: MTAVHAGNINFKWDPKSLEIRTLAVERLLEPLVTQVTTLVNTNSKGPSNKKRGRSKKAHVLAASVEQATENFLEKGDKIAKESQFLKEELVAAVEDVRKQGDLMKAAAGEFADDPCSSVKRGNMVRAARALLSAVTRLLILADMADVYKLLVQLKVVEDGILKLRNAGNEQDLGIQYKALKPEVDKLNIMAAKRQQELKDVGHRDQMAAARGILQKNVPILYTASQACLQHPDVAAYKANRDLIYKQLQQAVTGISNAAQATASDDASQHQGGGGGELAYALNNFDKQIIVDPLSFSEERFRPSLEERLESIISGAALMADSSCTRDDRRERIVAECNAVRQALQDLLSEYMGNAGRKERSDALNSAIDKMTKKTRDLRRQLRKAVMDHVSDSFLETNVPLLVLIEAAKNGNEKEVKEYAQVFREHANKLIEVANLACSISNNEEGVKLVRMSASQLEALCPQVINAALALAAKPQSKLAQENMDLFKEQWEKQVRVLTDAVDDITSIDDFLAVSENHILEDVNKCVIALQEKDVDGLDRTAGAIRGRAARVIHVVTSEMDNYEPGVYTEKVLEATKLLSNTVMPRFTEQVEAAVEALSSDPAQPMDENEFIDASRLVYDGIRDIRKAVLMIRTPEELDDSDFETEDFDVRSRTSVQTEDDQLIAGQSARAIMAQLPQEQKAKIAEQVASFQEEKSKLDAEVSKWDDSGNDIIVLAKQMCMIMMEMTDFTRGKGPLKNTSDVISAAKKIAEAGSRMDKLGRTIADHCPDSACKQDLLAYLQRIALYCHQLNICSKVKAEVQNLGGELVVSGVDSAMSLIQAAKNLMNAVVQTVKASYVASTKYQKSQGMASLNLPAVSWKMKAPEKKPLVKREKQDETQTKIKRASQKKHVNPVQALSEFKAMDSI
UniProt P18206: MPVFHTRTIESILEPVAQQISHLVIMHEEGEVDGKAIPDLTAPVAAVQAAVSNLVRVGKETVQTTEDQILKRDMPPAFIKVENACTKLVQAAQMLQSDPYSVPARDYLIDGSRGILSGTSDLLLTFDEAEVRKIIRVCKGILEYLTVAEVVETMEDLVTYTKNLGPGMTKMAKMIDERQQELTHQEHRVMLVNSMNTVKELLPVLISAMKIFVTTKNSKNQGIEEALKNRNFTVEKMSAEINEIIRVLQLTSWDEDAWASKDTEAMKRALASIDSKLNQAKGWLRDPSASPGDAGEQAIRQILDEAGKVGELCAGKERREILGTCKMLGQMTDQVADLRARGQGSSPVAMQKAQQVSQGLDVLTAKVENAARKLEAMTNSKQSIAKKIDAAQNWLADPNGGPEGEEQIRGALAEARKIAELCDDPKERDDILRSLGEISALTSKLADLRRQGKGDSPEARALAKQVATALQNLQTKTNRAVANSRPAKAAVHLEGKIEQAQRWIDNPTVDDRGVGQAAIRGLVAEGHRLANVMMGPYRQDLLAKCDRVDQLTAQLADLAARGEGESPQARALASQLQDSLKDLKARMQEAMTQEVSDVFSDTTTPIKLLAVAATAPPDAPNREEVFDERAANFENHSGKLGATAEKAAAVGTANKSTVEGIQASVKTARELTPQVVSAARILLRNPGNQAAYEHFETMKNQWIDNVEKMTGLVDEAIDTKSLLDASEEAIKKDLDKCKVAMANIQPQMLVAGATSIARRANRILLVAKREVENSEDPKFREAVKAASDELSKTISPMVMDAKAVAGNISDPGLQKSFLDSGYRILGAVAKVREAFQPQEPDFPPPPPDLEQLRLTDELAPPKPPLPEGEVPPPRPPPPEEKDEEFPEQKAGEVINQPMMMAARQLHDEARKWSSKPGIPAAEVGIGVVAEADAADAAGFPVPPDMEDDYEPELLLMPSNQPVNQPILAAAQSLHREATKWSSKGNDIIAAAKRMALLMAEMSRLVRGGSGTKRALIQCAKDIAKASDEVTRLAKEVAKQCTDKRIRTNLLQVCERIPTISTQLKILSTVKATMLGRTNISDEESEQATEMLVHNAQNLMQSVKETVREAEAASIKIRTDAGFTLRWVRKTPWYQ
UniProt Q9Y6J8: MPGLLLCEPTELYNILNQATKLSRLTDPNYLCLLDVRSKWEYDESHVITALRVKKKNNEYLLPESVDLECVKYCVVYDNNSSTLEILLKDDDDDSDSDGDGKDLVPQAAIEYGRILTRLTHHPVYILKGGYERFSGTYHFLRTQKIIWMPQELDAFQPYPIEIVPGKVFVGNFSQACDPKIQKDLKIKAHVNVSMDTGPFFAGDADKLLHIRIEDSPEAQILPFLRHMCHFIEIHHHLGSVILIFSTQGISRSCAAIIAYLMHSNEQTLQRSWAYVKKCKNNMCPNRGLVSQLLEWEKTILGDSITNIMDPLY
UniProt P35222: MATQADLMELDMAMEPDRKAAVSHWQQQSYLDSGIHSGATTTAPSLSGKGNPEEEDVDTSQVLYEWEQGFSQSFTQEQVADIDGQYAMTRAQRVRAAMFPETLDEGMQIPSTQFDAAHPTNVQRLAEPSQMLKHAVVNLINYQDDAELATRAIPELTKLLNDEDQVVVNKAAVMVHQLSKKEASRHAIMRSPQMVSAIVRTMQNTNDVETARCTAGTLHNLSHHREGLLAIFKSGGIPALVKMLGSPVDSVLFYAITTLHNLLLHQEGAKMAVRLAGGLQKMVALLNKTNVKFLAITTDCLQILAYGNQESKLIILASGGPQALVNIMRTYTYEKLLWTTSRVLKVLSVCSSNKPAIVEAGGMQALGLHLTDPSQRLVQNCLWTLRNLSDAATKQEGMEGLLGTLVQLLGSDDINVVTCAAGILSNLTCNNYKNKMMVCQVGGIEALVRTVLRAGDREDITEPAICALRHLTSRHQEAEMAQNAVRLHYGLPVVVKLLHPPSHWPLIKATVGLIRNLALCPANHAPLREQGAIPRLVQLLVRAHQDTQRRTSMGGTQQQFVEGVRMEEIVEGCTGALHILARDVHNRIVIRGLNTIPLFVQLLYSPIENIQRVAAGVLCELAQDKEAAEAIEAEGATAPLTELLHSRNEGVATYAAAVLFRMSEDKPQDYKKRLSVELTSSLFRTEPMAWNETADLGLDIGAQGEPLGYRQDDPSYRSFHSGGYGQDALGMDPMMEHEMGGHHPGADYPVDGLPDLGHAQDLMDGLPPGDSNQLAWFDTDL
UniProt P35080: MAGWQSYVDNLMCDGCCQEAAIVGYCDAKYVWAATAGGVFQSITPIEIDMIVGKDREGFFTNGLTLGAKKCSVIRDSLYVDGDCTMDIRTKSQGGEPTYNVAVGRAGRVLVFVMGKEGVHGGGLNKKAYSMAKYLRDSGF
UniProt Q03135: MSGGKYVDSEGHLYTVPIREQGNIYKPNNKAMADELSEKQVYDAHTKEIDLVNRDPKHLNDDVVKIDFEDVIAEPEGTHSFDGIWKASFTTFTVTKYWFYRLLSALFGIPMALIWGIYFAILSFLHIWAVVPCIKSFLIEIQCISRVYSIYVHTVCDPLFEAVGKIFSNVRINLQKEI
UniProt Q9BR76: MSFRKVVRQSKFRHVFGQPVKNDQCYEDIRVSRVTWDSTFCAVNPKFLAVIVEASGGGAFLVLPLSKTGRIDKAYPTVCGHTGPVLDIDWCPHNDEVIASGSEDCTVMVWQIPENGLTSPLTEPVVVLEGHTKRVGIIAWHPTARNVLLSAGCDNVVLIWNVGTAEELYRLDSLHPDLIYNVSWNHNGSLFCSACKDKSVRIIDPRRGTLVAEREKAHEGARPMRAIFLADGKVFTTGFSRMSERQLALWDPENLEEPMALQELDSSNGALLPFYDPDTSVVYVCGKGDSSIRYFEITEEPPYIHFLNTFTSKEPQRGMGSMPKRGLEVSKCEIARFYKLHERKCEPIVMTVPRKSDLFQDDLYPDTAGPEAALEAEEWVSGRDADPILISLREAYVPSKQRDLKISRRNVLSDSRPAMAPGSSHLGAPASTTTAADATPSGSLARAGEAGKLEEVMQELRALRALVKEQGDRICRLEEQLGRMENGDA
UniProt P24723: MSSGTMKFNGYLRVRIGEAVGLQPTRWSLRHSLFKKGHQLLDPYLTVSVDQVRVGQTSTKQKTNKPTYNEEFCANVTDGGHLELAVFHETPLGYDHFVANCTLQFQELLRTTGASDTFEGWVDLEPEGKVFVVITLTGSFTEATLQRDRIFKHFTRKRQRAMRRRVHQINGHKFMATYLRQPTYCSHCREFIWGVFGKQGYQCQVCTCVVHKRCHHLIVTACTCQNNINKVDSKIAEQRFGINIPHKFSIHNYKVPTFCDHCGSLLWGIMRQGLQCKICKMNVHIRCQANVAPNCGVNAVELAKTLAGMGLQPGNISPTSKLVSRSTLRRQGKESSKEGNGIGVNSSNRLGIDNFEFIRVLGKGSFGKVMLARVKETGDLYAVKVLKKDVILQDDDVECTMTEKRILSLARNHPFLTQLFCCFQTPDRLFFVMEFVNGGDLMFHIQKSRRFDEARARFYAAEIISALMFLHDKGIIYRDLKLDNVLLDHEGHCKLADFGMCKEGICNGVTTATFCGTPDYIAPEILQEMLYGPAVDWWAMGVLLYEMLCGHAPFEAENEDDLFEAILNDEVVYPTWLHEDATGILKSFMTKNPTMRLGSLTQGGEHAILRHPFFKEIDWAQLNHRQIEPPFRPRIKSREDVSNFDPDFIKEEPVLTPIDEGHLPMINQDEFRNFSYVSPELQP
UniProt Q9UI08: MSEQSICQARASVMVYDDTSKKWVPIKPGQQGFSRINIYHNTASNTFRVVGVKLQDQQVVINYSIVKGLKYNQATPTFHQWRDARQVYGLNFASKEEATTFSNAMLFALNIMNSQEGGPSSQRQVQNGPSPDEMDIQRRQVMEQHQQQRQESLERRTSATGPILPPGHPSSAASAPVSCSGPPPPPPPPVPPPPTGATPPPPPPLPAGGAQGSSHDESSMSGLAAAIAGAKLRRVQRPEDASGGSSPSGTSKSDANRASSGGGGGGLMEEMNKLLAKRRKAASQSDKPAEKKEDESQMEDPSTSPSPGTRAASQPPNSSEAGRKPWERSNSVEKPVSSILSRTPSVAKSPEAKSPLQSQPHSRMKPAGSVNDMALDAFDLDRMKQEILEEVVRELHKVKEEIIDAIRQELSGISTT
UniProt P22223, residues 108-829: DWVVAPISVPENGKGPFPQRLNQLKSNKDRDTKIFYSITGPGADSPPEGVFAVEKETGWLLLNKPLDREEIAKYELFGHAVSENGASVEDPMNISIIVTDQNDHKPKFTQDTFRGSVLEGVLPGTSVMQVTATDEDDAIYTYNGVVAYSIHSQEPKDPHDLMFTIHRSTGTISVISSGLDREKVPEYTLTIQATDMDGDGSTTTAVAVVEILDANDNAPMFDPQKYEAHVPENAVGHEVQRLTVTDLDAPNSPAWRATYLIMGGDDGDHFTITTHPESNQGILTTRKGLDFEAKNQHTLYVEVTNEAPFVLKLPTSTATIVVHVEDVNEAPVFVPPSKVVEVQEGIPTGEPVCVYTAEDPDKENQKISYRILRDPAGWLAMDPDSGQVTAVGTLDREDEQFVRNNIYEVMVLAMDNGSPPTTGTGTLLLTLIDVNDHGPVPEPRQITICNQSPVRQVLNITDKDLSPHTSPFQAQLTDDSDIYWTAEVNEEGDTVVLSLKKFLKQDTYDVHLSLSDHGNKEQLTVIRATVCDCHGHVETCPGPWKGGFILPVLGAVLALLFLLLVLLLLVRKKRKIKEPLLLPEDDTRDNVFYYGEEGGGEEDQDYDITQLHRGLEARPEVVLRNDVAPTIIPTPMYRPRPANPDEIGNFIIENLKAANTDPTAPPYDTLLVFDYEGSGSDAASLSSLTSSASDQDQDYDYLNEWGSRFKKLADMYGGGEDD
UniProt Q7Z698: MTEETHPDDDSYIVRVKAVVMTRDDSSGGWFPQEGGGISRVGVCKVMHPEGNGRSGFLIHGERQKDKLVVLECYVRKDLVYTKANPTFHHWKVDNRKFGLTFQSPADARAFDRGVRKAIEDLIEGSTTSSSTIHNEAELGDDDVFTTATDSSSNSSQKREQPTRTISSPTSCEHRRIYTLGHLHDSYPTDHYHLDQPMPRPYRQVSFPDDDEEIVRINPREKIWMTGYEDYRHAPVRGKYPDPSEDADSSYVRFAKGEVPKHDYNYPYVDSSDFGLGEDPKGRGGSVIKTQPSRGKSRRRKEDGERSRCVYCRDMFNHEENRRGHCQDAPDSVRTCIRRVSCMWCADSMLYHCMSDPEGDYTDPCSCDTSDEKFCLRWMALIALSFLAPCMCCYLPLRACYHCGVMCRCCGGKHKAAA

Assays:
Test in all cases: affinity purification with mass spectrometry; Flag-HA-tagged bait stably expressed in MCF10A cells; lysis in 50 mM Tris-HCl pH 7.5, 150 mM NaCl, 0.5% Nonidet P40, 4 °C; tagged bait immunoprecipitated, LC-MS/MS, CompPASS scoring of high confidence interacting proteins
[1] = molecular target: T1, FLAG-HA-tagged NEK8 bait (human) (UniProt Q86SG6)
T1 sequence: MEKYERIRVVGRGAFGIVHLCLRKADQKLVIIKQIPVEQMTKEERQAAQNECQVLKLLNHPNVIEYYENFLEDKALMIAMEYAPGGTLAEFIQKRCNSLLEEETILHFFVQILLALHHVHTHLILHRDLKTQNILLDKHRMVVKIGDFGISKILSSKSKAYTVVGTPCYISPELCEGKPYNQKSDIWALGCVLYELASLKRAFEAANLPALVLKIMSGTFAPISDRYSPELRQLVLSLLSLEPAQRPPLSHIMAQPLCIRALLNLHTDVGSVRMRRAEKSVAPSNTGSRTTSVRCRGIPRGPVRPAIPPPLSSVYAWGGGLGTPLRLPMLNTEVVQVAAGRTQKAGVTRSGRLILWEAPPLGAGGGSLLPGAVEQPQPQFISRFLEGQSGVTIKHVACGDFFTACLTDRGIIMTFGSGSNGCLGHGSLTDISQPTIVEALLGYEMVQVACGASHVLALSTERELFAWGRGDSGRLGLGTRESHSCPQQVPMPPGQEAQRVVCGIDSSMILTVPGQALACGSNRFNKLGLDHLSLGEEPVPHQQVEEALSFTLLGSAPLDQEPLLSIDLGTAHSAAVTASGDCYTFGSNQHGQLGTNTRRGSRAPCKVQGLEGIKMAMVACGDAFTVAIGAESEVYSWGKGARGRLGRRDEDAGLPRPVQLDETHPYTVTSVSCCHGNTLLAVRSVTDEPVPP

[2] = molecular target: FLAG-HA-tagged α-catenin (CTNNA1) bait (human) (UniProt P35221)
[3] = molecular target: vinculin (VCL) bait with C-terminal Flag-HA (human) (UniProt P18206)
[4] = molecular target: FLAG-HA-tagged STYXL1 bait (human) (UniProt Q9Y6J8)
[5] = molecular target: FLAG-HA-tagged PTPN6 (SHP1) bait (human) (UniProt P29350)
[6] = molecular target: FLAG-HA-tagged β-catenin (CTNNB1) bait (human) (UniProt P35222)
[7] = molecular target: FLAG-HA-tagged profilin2 (PFN2) bait (human) (UniProt P35080)
[8] = molecular target: FLAG-HA-tagged CAV1 bait (human) (UniProt Q03135)
[9] = molecular target: FLAG-HA-tagged CORO1B bait (human) (UniProt Q9BR76)

β-catenin (CTNNB1), endogenous (from UniProt P35222 1-781)
binding [1]: binds | binding [2]: binds

PTPN6 (SHP1), endogenous (from UniProt P29350 1-595) (enzyme)
binding [3]: binds

PRKCH (PKCη), endogenous (from UniProt P24723 1-683) (enzyme)
binding [4]: binds | binding [5]: binds

α-catenin (CTNNA1), endogenous (from UniProt P35221 1-906)
binding [1]: binds | binding [6]: binds

EVL, endogenous (from UniProt Q9UI08 1-416)
binding [7]: binds

E-cadherin (CDH1), endogenous (human (endogenous in MCF10A)) (receptor)
binding [1]: binds

P-cadherin (CDH3), endogenous (from UniProt P22223 108-829) (receptor)
binding [1]: binds

MARK2 (PAR1), endogenous (from UniProt Q7KZI7 1-788) (enzyme)
binding [3]: binds

ARHGAP21, endogenous (from UniProt Q5T5U3 1-1958)
binding [2]: binds

SPRED2, endogenous (from UniProt Q7Z698 1-418)
binding [8]: binds

CORO1B, endogenous (from UniProt Q9BR76 1-489)
binding [3]: binds

vinculin, endogenous (from UniProt P18206-2)
binding [9]: binds

B1: δ-catenin (CTNND1), endogenous (protein, UniProt O60716 1-968)
chain: MDDSEVESTASILASVKEQEAQFEKLTRALEEERRHVSAQLERVRVSPQDANPLMANGTLTRRHQNGRFVGDADLERQKFSDLKLNGPQDHSHLLYSTIPRMQEPGQIVETYTEEDPEGAMSVVSVETSDDGTTRRTETTVKKVVKTVTTRTVQPVAMGPDGLPVDASSVSNNYIQTLGRDFRKNGNGGPGPYVGQAGTATLPRNFHYPPDGYSRHYEDGYPGGSDNYGSLSRVTRIEERYRPSMEGYRAPSRQDVYGPQPQVRVGGSSVDLHRFHPEPYGLEDDQRSMGYDDLDYGMMSDYGTARRTGTPSDPRRRLRSYEDMIGEEVPSDQYYWAPLAQHERGSLASLDSLRKGGPPPPNWRQPELPEVIAMLGFRLDAVKSNAAAYLQHLCYRNDKVKTDVRKLKGIPVLVGLLDHPKKEVHLGACGALKNISFGRDQDNKIAIKNCDGVPALVRLLRKARDMDLTEVITGTLWNLSSHDSIKMEIVDHALHALTDEVIIPHSGWEREPNEDCKPRHIEWESVLTNTAGCLRNVSSERSEARRKLRECDGLVDALIFIVQAEIGQKDSDSKLVENCVCLLRNLSYQVHREIPQAERYQEAAPNVANNTGPHAASCFGAKKGKDEWFSRGKKPIEDPANDTVDFPKRTSPARGYELLFQPEVVRIYISLLKESKTPAILEASAGAIQNLCAGRWTYGRYIRSALRQEKALSAIADLLTNEHERVVKAASGALRNLAVDARNKELIGKHAIPNLVKNLPGGQQNSSWNFSEDTVISILNTINEVIAENLEAAKKLRETQGIEKLVLINKSGNRSEKEVRAAALVLQTIWGYKELRKPLEKEGWKKSDFQVNLNNASRSQSSHSYDDSTLPLIDRNQKSDKKPDREEIQMSNMGSNTKSLDNNYSTPNERGDHNRTLDRSGDLGDMEPLKGTTPLMQDEGQESLEEELDVLVLDDEGGQVSYPSMQKI
binding [2]: binds | binding [6]: binds

B2: PPP1R1B, endogenous (protein, UniProt Q9UD71 1-204)
chain: MDPKDRKKIQFSVPAPPSQLDPRQVEMIRRRRPTPAMLFRLSEHSSPEEEASPHQRASGEGHHLKSKRPNPCAYTPPSLKAVQRIAESHLQSISNLNENQASEEEDELGELRELGYPREEDEEEEEDDEEEEEEEDSQAEVLKVIRQSAGQKTTCGQGLEGPWERPPPLDESERDGGSEDQVEDPALSEPGEEPQRPSPSEPGT
binding [7]: binds

B3: TRIP6, endogenous (protein, UniProt Q15654 1-476)
chain: MSGPTWLPPKQPEPARAPQGRAIPRGTPGPPPAHGAALQPHPRVNFCPLPSEQCYQAPGGPEDRGPAWVGSHGVLQHTQGLPADRGGLRPGSLDAEIDLLSSTLAELNGGRGHASRRPDRQAYEPPPPPAYRTGSLKPNPASPLPASPYGGPTPASYTTASTPAGPAFPVQVKVAQPVRGCGPPRRGASQASGPLPGPHFPLPGRGEVWGPGYRSQREPGPGAKEEAAGVSGPAGRGRGGEHGPQVPLSQPPEDELDRLTKKLVHDMNHPPSGEYFGQCGGCGEDVVGDGAGVVALDRVFHVGCFVCSTCRAQLRGQHFYAVERRAYCEGCYVATLEKCATCSQPILDRILRAMGKAYHPGCFTCVVCHRGLDGIPFTVDATSQIHCIEDFHRKFAPRCSVCGGAIMPEPGQEETVRIVALDRSFHIGCYKCEECGLLLSSEGECQGCYPLDGHILCKACSAWRIQELSATVTTDC
binding [3]: binds

B4: PLEKHA6, endogenous (protein, UniProt Q9Y2H5 1-1048)
chain: MSNKTGGKRPATTNSDIPNHNMVSEVPPERPSVRATRTARKAVAFGKRSHSMKRNPNAPVTKAGWLFKQASSGVKQWNKRWFVLVDRCLFYYKDEKEESILGSIPLLSFRVAAVQPSDNISRKHTFKAEHAGVRTYFFSAESPEEQEAWIQAMGEAARVQIPPAQKSVPQAVRHSHEKPDSENVPPSKHHQQPPHNSLPKPEPEAKTRGEGDGRGCEKAERRPERPEVKKEPPVKANGLPAGPEPASEPGSPYPEGPRVPGGGEQPAQPNGWQYHSPSRPGSTAFPSQDGETGGHRRSFPPRTNPDKIAQRKSSMNQLQQWVNLRRGVPPPEDLRSPSRFYPVSRRVPEYYGPYSSQYPDDYQYYPPGVRPESICSMPAYDRISPPWALEDKRHAFRNGGGPAYQLREWKEPASYGRQDATVWIPSPSRQPVYYDELDAASSSLRRLSLQPRSHSVPRSPSQGSYSRARIYSPVRSPSARFERLPPRSEDIYADPAAYVMRRSISSPKVPPYPEVFRDSLHTYKLNEQDTDKLLGKLCEQNKVVREQDRLVQQLRAEKESLESALMGTHQELEMFGSQPAYPEKLRHKKDSLQNQLINIRVELSQATTALTNSTIEYEHLESEVSALHDDLWEQLNLDTQNEVLNRQIQKEIWRIQDVMEGLRKNNPSRGTDTAKHRGGLGPSATYSSNSPASPLSSASLTSPLSPFSLVSGSQGSPTKPGSNEPKANYEQSKKDPHQTLPLDTPRDISLVPTRQEVEAEKQAALNKVGVVPPRTKSPTDDEVTPSAVVRRNASGLTNGLSSQERPKSAVFPGEGKVKMSVEEQIDRMRRHQSGSMREKRRSLQLPASPAPDPSPRPAYKVVRRHRSIHEVDISNLEAALRAEEPGGHAYETPREEIARLRKMELEPQHYDVDINKELSTPDKVLIPERYIDLEPDTPLSPEELKEKQKKVERIKTLIAKSSMQNVVPIGEGDSVDVPQDSESQLQEQEKRIEISCALATEASRRGRMLSVQCATPSPPTSPASPAPPANPLSSESPRGADSSYTMRV
binding [2]: binds | binding [6]: binds
